How the values were obtained:
[1] = tested on: COX8α; test: qRT-PCR mRNA expression of ERR downstream gene COX8α; assay type: cell-based; conditions: 300 nM; ERR reporter cells; vs GAPDH, DMSO = 0%
Protocol: (§1) Total RNA was isolated from treated ERR reporter cells using an RNeasy Mini Kit (Qiagen, Germantown, MD, USA), homogenized using a QIAshredder (Qiagen), and reverse transcribed with a High-Capacity RNA-to-cDNA™ Kit (ThermoFisher Scientific, Inc.) following the manufacturers’ instructions. Expression of ERRα, COX8α, IDH3α, PPARα, COX4I1, and cytochrome c genes was normalized against GAPDH. All primers were purchased from ThermoFisher Scientific, Inc. Real-time PCR assays were performed in 384-well plates on a QuantStudio 5 (Applied Biosystems, Foster City, CA, USA) with TaqMan™ Gene Expression Master Mix (ThermoFisher Scientific, Inc.). Induction values were calculated using the equation: Fold = 2^ΔΔCt, where ΔCt represents the differences in cycle threshold numbers between each of the target genes and GAPDH, and ΔΔCt represents the relative change in these differences between control and treatment groups. Experimental data are presented as a mean of triplicate determinations ± SD. Statistical comparisons were made by t-test, while the statistical significance was set at p values of <0.05 (light blue), <0.01 (medium blue), and <0.001 (dark blue).

[2] = tested on: IDH3α; test: qRT-PCR mRNA expression of ERR downstream gene IDH3α; assay type: cell-based; conditions: 300 nM; ERR reporter cells; vs GAPDH, DMSO = 0%
Protocol: as §1

## O=C(CCCCCCC(=O)Nc1ccccc1)NO [Vorinostat (SAHA), Suberoylanilide hydroxamic acid]
[1]
  Percent inhibition of mRNA gene expression, COX8α: 33.4 ± 22.5%
[2]
  Percent inhibition of mRNA gene expression, IDH3α: 26.1 ± 32.9%

Reference: PMC6429183, “Identification of Compounds That Inhibit Estrogen-Related Receptor Alpha Signaling Using High-Throughput Screening Assays” (Molecules, 2019)
